# Laboratory results: PubChem BioAssay AID504784 (Drosophila RNAi Screening Center, 2011)
# Assay: 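Genome-wide knock-down for genes giving too much or too little stored lipid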 (primary screen)
# Cell system: Drosophila Kc167 embryonic cells
# Reagents: long dsRNA against Drosophila genes, about 250 ng dsRNA per well
# Time to read-out: 4 days
# Treatment: cells fed 400 µM oleic acid bound to BSA
# Detection: 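Microscope images give a droplet-to-nucleus area ratio, taken as log and converted to a screen-wide B-score; higher values mean greater lipid storage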
# Reading the numbers: droplet/nuclear area B-score: higher = more stored lipid (overstorage)
# The deposit covers about 17,000 reagents; shown is an unselected part of those with a known target gene and a result. 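Each column is one replicate's B-score; the combined score over replicates was not deposited, so single values may mislead.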 Names joined by + are all predicted targets of the reagent.
gene knocked down,DRSC id,"droplet/nuclear area B-score, replicate 1","droplet/nuclear area B-score, replicate 2","droplet/nuclear area B-score, replicate 3"
Afti (Aftiphilin),DRSC16440,-0.0668,8.57,
yuri (yuri gagarin),DRSC01453,0.0775,0.343,
yuri (yuri gagarin),DRSC01943,-0.558,0.0726,
yuri (yuri gagarin),DRSC01972,0.496,-0.652,
Blimp-1,DRSC10496,-0.00516,-1.31,
CG31437,DRSC13711,1.44,0.918,-0.0199
alien,DRSC03482,-2.6,-2.9,
Syx6 (Syntaxin 6),DRSC07032,0.117,,
CG4074,DRSC11752,0.683,1.34,
CG11617,DRSC00321,-0.207,1.85,
CG11617,DRSC21786,-1.76,-2.49,
CG13876,DRSC08346,-0.0158,-0.581,
Lerp (lysosomal enzyme receptor protein),DRSC14750,-1.5,0.959,
Lerp (lysosomal enzyme receptor protein),DRSC14751,0.178,0.833,
Lerp (lysosomal enzyme receptor protein),DRSC16030,-0.772,0.0736,
Lerp (lysosomal enzyme receptor protein),DRSC16031,-1.52,-1.05,
ro (rough),DRSC17046,-0.193,0.534,
up (upheld),DRSC20382,0.336,0.596,-2.39
CG13070,DRSC09953,0.264,-0.235,
Cht4 (Chitinase 4),DRSC04603,-1.48,-0.328,
CG14043,DRSC02368,-0.0166,0.28,
CG32263,DRSC22431,-0.0317,0.149,
Drep2 (DNA fragmentation factor-related protein 2),DRSC07528,1.73,-0.484,
grim,DRSC11352,0.244,2.28,
grim,DRSC23169,0.548,-0.674,
Osi14 (Osiris 14),DRSC12368,-1.88,-2.05,
CG46301,DRSC01916,0.698,1.55,-0.454
EloB (Elongin B),DRSC16663,-0.482,-1.04,
flz (filzig),DRSC07109,-0.933,2.84,
HtrA2 (HTRA2-related serine protease),DRSC16425,0.382,-0.175,
CG15283,DRSC01980,-0.933,-0.0769,
CG13130 (retired record),DRSC02226,-1.64,-1.35,
CG9733,DRSC16549,1.83,0.544,
Mst84Dd (Male-specific RNA 84Dd),DRSC12600,-1.05,0.152,
Rgl (Ral guanine nucleotide dissociation stimulator-like),DRSC11267,0.133,0.0023,
CG34227,DRSC06788,0.212,1.87,
CG34227,DRSC07034,0.25,3.15,
CG6686,DRSC02979,-2.93,-2.06,
Gp210 (Glycoprotein 210 kDa),DRSC04861,-0.97,0.0172,
Gp210 (Glycoprotein 210 kDa),DRSC04900,0.247,0.168,
Cep89 (Centrosomal protein 89kDa),DRSC07110,0.343,0.0398,
CG2854,DRSC18595,1.85,0.603,
CG15756,DRSC19721,-1.7,-0.042,0.0103
CG34260 + cmpy,DRSC11701,1.15,0.751,
jigr1 (jing interacting gene regulatory 1),DRSC15233,-1.61,-1.12,
jigr1 (jing interacting gene regulatory 1),DRSC22617,1.46,1.79,
Atu (Another transcription unit),DRSC12123,1.43,0.112,
CG6793,DRSC10714,-0.544,0.153,
CG12128,DRSC06104,1.37,-0.155,
Vps39 (Vacuolar protein sorting 39),DRSC16205,0.529,-0.233,
CG30373,DRSC05081,1.08,-0.756,
Cpr30B (Cuticular protein 30B),DRSC02728,1.18,0.438,
CG15160,DRSC02461,-0.0339,0.179,
Flacc (Fl(2)d-associated complex component),DRSC20040,1.21,0.584,
RhoGAP5A (Rho GTPase activating protein at 5A),DRSC18294,-1.7,-0.544,0.0955
ND-39 (NADH dehydrogenase (ubiquinone) 39 kDa subunit),DRSC11791,5.55,0.925,1.89
CG9391,DRSC11858,-0.0899,0.703,
CG31869,DRSC02582,-1.01,-1.28,
CG31869,DRSC02674,0.869,0.747,
sra (sarah),DRSC17015,1.06,0.081,
Usp8 (Ubiquitin specific protease 8),DRSC15876,-0.663,-0.315,
CG42322,DRSC15112,1.24,-0.151,
CG42322,DRSC15113,0.0738,-1.48,
CG42322,DRSC15114,0.927,,
CG14506,DRSC14858,1.58,0.0317,
ari-1 (ariadne 1),DRSC20308,-0.265,-0.482,
ari-1 (ariadne 1),DRSC21603,0.41,0.953,
Actn3 (alpha actinin 3),DRSC14106,-0.0272,-0.00648,
cN-IIIB (cytosolic 5'-nucleotidase IIIB),DRSC04359,0.606,0.461,
CNMa (CNMamide),DRSC08405,-0.935,0.0666,
CG6724,DRSC02983,-0.0832,1.55,
CG7924,DRSC10931,1.69,3.49,0.447
CG31391,DRSC16047,1.59,-1.21,
CG11151,DRSC19387,0.595,0.279,
CkIIbeta2 (Casein kinase II beta2 subunit),DRSC07361,-0.131,-1.68,
CG4612,DRSC04478,0.907,-1.58,
GLS (Glutaminase),DRSC07261,-1.01,-1.89,
CG30357,DRSC22472,0.141,0.801,
CanB2 (Calcineurin B2),DRSC07355,-1.72,-0.629,
CG31323,DRSC14901,0.202,-0.864,
Coq8 (Coenzyme Q8),DRSC19900,-0.685,0.232,0.209
ebi,DRSC00816,-2.47,-1.2,
pyd (polychaetoid),DRSC12712,2.06,-0.475,
pyd (polychaetoid),DRSC14387,-2.02,0.328,
pyd (polychaetoid),DRSC14445,-0.428,-1.38,
pyd (polychaetoid),DRSC14509,0.0564,0.702,
pyd (polychaetoid),DRSC16547,-1.85,-0.606,
pyd (polychaetoid),DRSC16548,3.29,-0.649,
pyd (polychaetoid),DRSC17041,-2,-0.0369,
pyd (polychaetoid),DRSC21523,-2.3,1.1,
pyd (polychaetoid),DRSC23116,0.58,0.459,
CG10984,DRSC09817,1.34,-0.092,
Lst (Limostatin),DRSC07146,-1.52,,
Gprk2 (G protein-coupled receptor kinase 2),DRSC16682,0.129,3.3,
Gprk2 (G protein-coupled receptor kinase 2),DRSC23336,1.4,0.343,
ItgaPS4 (Integrin alphaPS4 subunit),DRSC06630,-0.118,-1.41,
CG3565,DRSC04389,-0.321,-0.233,
CG14257,DRSC14752,0.00961,0.466,
eIF4G2 (eukaryotic translation initiation factor 4G2),DRSC14207,2.6,-0.0346,
eIF4G2 (eukaryotic translation initiation factor 4G2),DRSC21739,-0.0956,-1.82,
CR40441 (pseudo),DRSC22916,-3.44,2.42,
sls (sallimus),DRSC08528,0.0354,-0.46,
sls (sallimus),DRSC08540,0.389,-0.483,
sls (sallimus),DRSC08670,0.828,1.41,
CG2750,DRSC19867,0.265,0.123,-0.236

Reformatted: entries from further up
| gene knocked down | DRSC id | droplet/nuclear area B-score, replicate 1 | droplet/nuclear area B-score, replicate 2 | droplet/nuclear area B-score, replicate 3 |
| --- | --- | --- | --- | --- |
| ari-1 (ariadne 1) | DRSC21603 | 0.41 | 0.953 | – |
| Actn3 (alpha actinin 3) | DRSC14106 | -0.0272 | -0.00648 | – |
| cN-IIIB (cytosolic 5'-nucleotidase IIIB) | DRSC04359 | 0.606 | 0.461 | – |
| CNMa (CNMamide) | DRSC08405 | -0.935 | 0.0666 | – |
| CG6724 | DRSC02983 | -0.0832 | 1.55 | – |
| CG7924 | DRSC10931 | 1.69 | 3.49 | 0.447 |
